No constants are given. Whether binding was seen depends on the method and setting. Binding seen in cells or lysates may run through a third protein. Some entries that bind do so weakly or less than the wild type.
Molecular target: large-conductance calcium-activated potassium (BKCa) channel alpha subunit (rat (endogenous in mesenteric arteries)) (UniProt Q62976)
Assay: co-IP; mesenteric arteries of SHR and WKY rats lysed in non-denaturing lysis buffer; 1.5 mg lysate with 8 ug rabbit polyclonal anti-KCNMA1 antibody for 2 h, protein A/G PLUS-agarose for 12 h at 4 °C, washed three times with PBS; blot with mouse monoclonal anti-IP3R1; weaker band from SHR than from WKY

Amino acid sequences for entries named in this document (tags omitted).
UniProt Q62976: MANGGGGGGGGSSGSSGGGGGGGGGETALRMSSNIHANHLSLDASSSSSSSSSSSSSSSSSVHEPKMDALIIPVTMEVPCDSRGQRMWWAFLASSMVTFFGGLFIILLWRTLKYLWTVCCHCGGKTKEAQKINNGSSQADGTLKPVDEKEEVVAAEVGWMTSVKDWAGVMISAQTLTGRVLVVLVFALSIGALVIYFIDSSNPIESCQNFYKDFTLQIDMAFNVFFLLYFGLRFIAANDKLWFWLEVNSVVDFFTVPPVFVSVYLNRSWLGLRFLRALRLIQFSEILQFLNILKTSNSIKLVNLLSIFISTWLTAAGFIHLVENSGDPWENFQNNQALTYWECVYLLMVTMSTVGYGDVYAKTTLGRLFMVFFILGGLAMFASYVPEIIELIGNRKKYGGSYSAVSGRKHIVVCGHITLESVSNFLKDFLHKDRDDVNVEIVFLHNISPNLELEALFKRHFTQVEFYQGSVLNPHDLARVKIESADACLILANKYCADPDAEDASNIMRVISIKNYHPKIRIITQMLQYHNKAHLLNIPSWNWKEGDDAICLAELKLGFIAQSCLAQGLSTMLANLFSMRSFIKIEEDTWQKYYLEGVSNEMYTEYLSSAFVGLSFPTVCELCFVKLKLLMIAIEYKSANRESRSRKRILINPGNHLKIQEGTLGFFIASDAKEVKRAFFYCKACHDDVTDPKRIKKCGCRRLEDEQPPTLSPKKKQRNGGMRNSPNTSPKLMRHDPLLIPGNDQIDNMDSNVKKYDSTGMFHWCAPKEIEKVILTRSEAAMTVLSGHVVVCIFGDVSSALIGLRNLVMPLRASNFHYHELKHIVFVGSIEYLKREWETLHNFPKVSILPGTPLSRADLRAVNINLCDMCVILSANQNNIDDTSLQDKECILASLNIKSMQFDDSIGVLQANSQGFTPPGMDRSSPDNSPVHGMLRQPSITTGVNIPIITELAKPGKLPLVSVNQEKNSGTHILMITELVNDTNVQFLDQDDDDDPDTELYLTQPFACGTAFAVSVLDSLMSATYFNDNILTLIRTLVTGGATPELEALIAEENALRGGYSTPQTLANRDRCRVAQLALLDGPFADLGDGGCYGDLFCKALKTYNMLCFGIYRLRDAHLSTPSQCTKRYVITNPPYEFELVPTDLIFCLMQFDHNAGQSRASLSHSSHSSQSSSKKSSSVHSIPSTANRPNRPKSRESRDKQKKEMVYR
UniProt P29994: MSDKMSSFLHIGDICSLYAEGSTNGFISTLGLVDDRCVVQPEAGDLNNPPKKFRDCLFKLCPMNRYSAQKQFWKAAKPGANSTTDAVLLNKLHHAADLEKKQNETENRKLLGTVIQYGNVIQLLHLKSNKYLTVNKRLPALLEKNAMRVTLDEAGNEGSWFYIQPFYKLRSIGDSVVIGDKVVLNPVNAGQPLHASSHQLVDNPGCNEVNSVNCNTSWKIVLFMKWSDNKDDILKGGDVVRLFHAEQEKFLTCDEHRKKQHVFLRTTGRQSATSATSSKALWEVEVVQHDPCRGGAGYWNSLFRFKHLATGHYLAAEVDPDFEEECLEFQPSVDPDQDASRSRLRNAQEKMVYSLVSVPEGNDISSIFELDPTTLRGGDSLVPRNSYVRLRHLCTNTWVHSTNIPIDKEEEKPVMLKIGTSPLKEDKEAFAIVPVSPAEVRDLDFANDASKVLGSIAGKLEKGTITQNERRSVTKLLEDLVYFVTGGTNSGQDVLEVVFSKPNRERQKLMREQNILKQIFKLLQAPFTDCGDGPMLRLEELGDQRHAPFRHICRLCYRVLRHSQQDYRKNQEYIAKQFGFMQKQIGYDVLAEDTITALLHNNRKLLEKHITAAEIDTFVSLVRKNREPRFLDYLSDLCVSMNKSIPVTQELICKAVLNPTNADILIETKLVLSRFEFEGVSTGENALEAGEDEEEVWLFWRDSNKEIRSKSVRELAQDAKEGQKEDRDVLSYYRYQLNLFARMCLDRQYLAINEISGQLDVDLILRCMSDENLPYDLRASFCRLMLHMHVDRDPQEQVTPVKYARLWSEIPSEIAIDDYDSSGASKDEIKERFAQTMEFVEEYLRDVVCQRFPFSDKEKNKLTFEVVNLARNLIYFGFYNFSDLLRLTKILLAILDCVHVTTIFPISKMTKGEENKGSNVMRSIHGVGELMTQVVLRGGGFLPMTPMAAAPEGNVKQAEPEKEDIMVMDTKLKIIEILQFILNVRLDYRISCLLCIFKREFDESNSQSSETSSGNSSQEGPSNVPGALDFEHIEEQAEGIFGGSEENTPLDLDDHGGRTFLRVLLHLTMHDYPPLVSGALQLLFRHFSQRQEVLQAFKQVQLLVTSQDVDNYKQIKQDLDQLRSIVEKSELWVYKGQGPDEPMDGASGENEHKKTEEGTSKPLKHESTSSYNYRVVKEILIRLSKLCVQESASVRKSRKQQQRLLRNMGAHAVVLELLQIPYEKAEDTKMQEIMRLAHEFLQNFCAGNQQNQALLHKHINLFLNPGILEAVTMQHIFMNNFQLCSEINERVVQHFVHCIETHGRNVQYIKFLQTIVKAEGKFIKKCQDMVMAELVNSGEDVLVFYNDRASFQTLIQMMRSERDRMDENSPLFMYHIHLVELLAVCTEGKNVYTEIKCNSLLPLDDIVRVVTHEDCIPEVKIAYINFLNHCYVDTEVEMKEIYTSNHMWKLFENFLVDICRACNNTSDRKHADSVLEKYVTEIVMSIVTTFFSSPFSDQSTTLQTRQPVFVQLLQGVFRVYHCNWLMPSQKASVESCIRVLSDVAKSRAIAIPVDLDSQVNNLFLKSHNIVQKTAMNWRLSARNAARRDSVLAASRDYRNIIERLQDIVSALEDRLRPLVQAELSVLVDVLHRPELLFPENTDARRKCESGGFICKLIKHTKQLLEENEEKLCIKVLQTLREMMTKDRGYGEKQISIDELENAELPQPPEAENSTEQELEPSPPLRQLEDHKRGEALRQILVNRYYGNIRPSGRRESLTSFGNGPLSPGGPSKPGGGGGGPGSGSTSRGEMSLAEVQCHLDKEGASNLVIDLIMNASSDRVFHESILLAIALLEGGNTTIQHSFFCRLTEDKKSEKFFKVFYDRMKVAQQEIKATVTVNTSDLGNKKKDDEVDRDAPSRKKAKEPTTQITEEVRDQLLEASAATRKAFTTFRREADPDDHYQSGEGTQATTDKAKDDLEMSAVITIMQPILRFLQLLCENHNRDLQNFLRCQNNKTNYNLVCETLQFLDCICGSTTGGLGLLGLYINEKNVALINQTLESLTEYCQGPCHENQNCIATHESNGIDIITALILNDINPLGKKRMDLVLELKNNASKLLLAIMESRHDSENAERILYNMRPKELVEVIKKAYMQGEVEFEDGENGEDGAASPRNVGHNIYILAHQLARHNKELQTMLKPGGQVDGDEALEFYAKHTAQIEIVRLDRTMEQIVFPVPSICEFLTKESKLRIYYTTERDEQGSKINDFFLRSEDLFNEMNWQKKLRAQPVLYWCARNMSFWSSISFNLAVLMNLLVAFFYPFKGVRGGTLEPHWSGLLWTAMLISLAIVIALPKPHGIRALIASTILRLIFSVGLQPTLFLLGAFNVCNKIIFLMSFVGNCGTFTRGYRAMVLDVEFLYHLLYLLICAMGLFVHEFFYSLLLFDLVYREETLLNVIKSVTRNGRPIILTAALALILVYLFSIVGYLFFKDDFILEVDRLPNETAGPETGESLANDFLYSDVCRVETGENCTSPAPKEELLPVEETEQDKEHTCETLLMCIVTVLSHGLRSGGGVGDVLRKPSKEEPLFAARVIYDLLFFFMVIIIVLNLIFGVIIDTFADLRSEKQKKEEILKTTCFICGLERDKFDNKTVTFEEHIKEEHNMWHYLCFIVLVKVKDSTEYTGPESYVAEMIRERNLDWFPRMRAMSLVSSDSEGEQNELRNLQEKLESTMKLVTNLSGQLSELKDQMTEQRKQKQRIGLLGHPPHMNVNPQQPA

binding: binds
Substance: inositol 1,4,5-trisphosphate receptor 1 (from UniProt P29994 1-2750)

From article PMC10341547
